Measured values as given in PMC9293964.
Results are given in words; binding and its absence hold for the method and conditions named. Binding seen in cells or lysates may run through a third protein. Some entries that bind do so weakly or less than the wild type. Sequences can lack the tags named with a protein.

Target: T1, FLAG-mANGPTL8 (angiopoietin-like protein 8) (mouse) (UniProt Q8R1L8)
T1 sequence: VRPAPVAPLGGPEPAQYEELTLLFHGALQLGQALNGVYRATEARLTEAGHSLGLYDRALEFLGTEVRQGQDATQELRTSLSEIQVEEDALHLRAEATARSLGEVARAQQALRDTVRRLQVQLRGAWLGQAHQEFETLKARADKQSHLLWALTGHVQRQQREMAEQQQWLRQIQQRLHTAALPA
Experiment: co-IP; FLAG-mANGPTL8 and Pe-CFP-PIRB transfected into 293-T cells; lysed after 24 h in IP buffer (50 mM Tris-HCl pH 7.5, 150 mM NaCl, 1% NP-40, 0.1% SDS-Na, proteinase inhibitor); anti-FLAG-M2 agarose beads overnight at 4 °C; western blot; the legend also names an IP with a LILRB3 antibody

B1: Pe-CFP-PIRB (paired immunoglobulin-like receptor B) (receptor, UniProt P97484 25-841)
chain: SLPKPILRVQPDSVVSRRTKVTFLCEETIGANEYRLYKDGKLYKTVTKNKQKPENKAEFSFSNVDLSNAGQYRCSYSTQYKSSGYSDLLELVVTGHYWTPSLLAQASPVVTSGGYVTLQCESWHNDHKFILTVEGPQKLSWTQDSQYNYSTRKYHALFSVGPVTPNQRWICRCYSYDRNRPYVWSPPSESVELLVSGNLQKPTIKAEPGSVITSKRAMTIWCQGNLDAEVYFLHNEKSQKTQSTQTLQEPGNKGKFFIPSVTLQHAGQYRCYCYGSAGWSQPSDTLELVVTGIYEYYEPRLSVLPSPVVTAGGNMTLHCASDFPYDKFILTKEDKKFGNSLDTEHISSSGQYRALFIIGPTTPTHTGAFRCYGYYKNAPQLWSVPSALQQILISGLSKKPSLLTHQGHILDPGMTLTLQCFSDINYDRFALHKVGGADIMQHSSQQTDTGFSVANFTLGYVSSSTGGQYRCYGAHNLSSEWSASSEPLDILITGQLPLTPSLSVQPNHTVHSGETVSLLCWSMDSVDTFILSKEGSAQQPLRLKSKSHDQQSQAEFSMSAVTSHLSGTYRCYGAQDSSFYLLSSASAPVELTVSGPIETSTPPPTMSMPLGGLHMYLKALIGVSVAFILFLFIFIFILLRRRHRGKFRKDVQKEKDLQLSSGAEEPITRKGELQKRPNPAAATQEESLYASVEDMQTEDGVELNSWTPPEEDPQGETYAQVKPSRLRKAGHVSPSVMSREQLNTEYEQAEEGQGANNQAAESGESQDVTYAQLCSRTLRQGAAASPLSQAGEAPEEPSVYATLAAARPEAVPKDMEQ
B1 was tested, and the binding was “binds”.
